Laboratory results taken from patent US10501479B2, “Benzenesulfonyl-asymmetric ureas and medical uses thereof” (HELSINN HEALTHCARE SA, priority 2016, dated 2019).

The chains behind the UniProt entries cited, without tags or fusion partners.
UniProt Q92847, whole entry: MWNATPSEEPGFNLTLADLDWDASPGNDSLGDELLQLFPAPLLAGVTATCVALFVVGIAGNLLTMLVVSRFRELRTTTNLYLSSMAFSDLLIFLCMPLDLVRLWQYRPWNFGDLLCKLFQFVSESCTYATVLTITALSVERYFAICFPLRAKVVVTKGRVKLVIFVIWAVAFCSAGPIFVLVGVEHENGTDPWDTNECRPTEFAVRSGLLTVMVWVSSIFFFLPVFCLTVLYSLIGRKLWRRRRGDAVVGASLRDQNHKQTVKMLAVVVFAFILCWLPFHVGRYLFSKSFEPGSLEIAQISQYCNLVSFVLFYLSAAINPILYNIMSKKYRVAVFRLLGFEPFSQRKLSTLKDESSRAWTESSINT

How the values were obtained:
[1] = target: recombinant human ghrelin receptor (HEK293/GRLN) (Homo sapiens, UniProt Q92847); test: Ghrelin inverse agonist potency (EC50) with IP-1 (IP-One HTRF) assay; details: IP-1 assay
Protocol: Evaluation of Ghrelin Inverse Agonist Potency (EC50) with IP-1 Assay:
HEK293 cells stably expressing recombinant human ghrelin receptor (HEK293/GRLN) were used in the IP-One HTRF assay. One day before the test, cells were seeded at a density of 1.5×10^4/well in a Matrigel® coated 384-well plate with 30 μL of complete Dulbecco's Modified Eagle's Medium and incubated at 37° C. in 5% CO2 for 18-22 hours. On the test day, the medium was removed by centrifugation at 600 rpm for 30 seconds, and 20 μL of stimulation buffer containing 1x tested compound was added with Bravo (Agilent technologies). The plate was then incubated at 37° C. 5% CO2 for 1 hour. After the incubation, 5 μL of IP1-d2 and 5 μL of Tb-Cryp were added to all wells using multidrop Combi(Thermo). After additional incubation at room temperature for 1 hour, the plates were read on Envision with 620 and 665 (Perkin Elmer).

[2] = target: T1, GHSR-1a (HEK293/GHSR1a cell line) (Homo sapiens, UniProt Q92847); test: Ghrelin agonist potency (EC50) with calcium FLIPR assay; details: for EC50/EMax: EC50 (Activity): ghrelin agonist potency
Protocol: (§1) Evaluation of Ghrelin Agonist (EC50) and Antagonist Potency (IC50) with Calcium FLIPR Assay:
(§2) The intracellular calcium assay was carried out in a 384-well format FLIPR™ (Molecular Device) HEK293/GHSR1a cell line. Cells were seeded 24 hr prior to the experiments at an optimal density per well. Preincubation with selected calcium dye lasted for 30-60 min at room temperature or 37° C. Test compounds, dissolved in DMSO, were added at the appropriate time and incubated for 15 min followed by the addition of ghrelin with FlexStation or FLIPR. Relative fluorescence was monitored by the FLIPR™ Molecular Device. EC50 and IC50 values were estimated from dose-response data using GraphPad Prism software. To check for GHSR-1a agonism, the compound was added at t=20 sec. and the calcium response was followed for 2 minutes. To check for GHSR-1a antagonism, the compound and Ghrelin (10 nM) were added to the cells at t=20 sec. and the calcium response was measured for 2 minutes. The potency of the antagonist was calculated by its ability to reduce the ghrelin response. Dose-response curves were made for relevant antagonists.

[3] = target: T1, GHSR-1a (HEK293/GHSR1a cell line); test: Ghrelin antagonist potency (IC50) with calcium FLIPR assay, ghrelin 10 nM
Protocol: as §1, §2

[4] = Metabolic stability in human liver microsomes
Protocol: (§3) Metabolic Stability Study
(§4) The metabolic stability of compounds in human, dog, rat and mouse liver microsomes was performed according the experimental conditions reported below:
(§5) • a) Prepare the following 5 stock solutions: • 1. Test compound stock solutions: dilute 10 mM solution of dextromethorphan (Dtr) in DMSO, 10 mM solution of diphenhydramine (DPA) in DMSO, 10 mM solution of omeprazole (Ome) in DMSO, 10 mM solution of verapamil (Ver) in DMSO, and 10 mM of an inverse agonist compound in DMSO to 0.25 mM solution each with acetonitrile/water (70/30). • 2. Buffer: 100 mM potassium phosphate Buffer (PBS) at pH 7.4 • 3. Liver microsomes (20 mg/ml): Thaw in 37° C. water bath quickly • 4. 2000 μL: of NADPH regenerating system (1.3 mM). Place this system on ice before use:
• 5. […]

[5] = Metabolic stability in mouse liver microsomes
Protocol: as §3, §4, §5
• 5. […]

[6] = Animal PK study in mouse via i.v., p.o. and s.c. administration
Protocol: • 5. Quench solution: acetonitrile with IS for LC-NIS/NIS analysis • b) Dilute the 20 mg/mL stock liver microsomes to 0.628 mg/mL of protein with 100 mM PBS. • c) Aliquot 398 μL of microsomes protein mixture (0.628 mg/mL) into the incubation plate and place the plate on ice. • d) Spike 2 μL of a substrate stock solution into the incubation wells filled with 398 μL of the protein mixture in order to obtain a test compound concentration of 1.25 μM in each well. • e) Pipette 80 μL of the test compound and microsomes protein mixture into the wells of a stop plate pre-filled with 300 μL of cold quench solution and 20 μL of NADPH regenerating system. The test compound concentration in the wells, measured by LC-MS/MS, represents the concentration at time=0. • f) To determine the test compound concentration when t≠0, pre-incubate the NADPH regenerating system and the incubation plate containing the remaining 320 μL of incubation mixture (microsomes protein and test compound) for 5 minutes at 37° C. • g) Start the incubation reaction by adding 80 μL NADPH regenerating system to each well containing the remaining 320 μL incubation mixture. • h) After 10 min., 30 min., and 90 min. of incubation at 37° C., transfer 100 μL of the incubation mixture (microsomes protein, test compound, and NADPH) into the wells of a stop plate pre-filled with 300 μL of the cold quench solution. Shake well. • i) Centrifuge the stop plate at 5000×g for 10 minutes. Collect and dilute the supernatant 3 times with distilled water. Sample and analyze the test compound concentration for all the wells by LC-MS/MS. Animal PK Studies via i.v. (intravenous), p.o. (orally) and s.c. (subcutaneous) administrations
All treated animals received a single dose of a test compound (either through i.v., p.o., or s.c. administration) according to the regimen shown in the following table:
For oral dose groups, appropriate amount of test compound was prepared in the following formulation carrier: 1% DMSO (increase to 5% maximum if necessary) and 0.5% Methycellulose. Each mouse or rat received by oral gavage 10 mL/kg of the formulation mixture.
For i.v. and s.c dose groups, appropriate amount of test compound was dissolved in 1% DMSO (increase to 5% maximum if necessary), 99% of 20% HP-β-Cyclodextron (w/v). The pH was adjusted accordingly. Each mouse or rat received 5 mL/kg of the formulation mixture. i.v. dose was administered by tail vein injection. Subcutaneous injection was administered over the shoulders, into the loose skin over the neck. At designated time points (e.g., i.v. and s.c.: 0.083, 0.25, 0.5, 1, 2, 4, 8 and 24 hrs; p.o.: 0.25, 0.5, 1, 2, 4, 8 and 24 hrs), systemic samples of blood (50 μL in mouse or 500 μL in rat) were collected by puncture (submandibular vein in mouse or jugular vein in rat) into vacutainers containing EDTA-K2 as anti-coagulant. The blood was centrifuged at 6000 rpm for 8 min at 4° C. to obtain plasma. All plasma samples were stored at −20° C. All plasma samples were added to acetonitrile for protein precipitation and quantitatively analyzed by LC-MS/MS.

With `COc1ccc([C@H](C)NC(=O)Nc2ccc(S(=O)(=O)Cc3ccc4c(c3)CCNC4)cc2)c(Cl)c1Cl` the EC50 ([1]; read-out: EC50 (Activity), inverse agonist potency) was 25.7 nM, the “EC50/EMax: EC50 (Activity)” value [2] was greater than 30000 nM and the IC50 ([3]; read-out: IC50 (Activity), ghrelin antagonist potency) was 34.7 nM. For the same molecule, the “Metabolic Stability Study H = human” value [4] was “H = <10 M = <10 R = not reported D = not reported μL/min/mg”, the “Metabolic Stability Study M = mouse” value [5] was “H = <10 M = <10 R = not reported D = not reported μL/min/mg” and the “PK F” value [6] was 7.91%. For the same molecule, the “PK CLiv” value ([6]; i.v.) was 186.2 mL/min/kg, the “PK Vdiv” value ([6]; i.v.) was 16.35 L/kg and the “PK t1/2iv” value ([6]; i.v.) was 1.01 h. The “PK CLpo” value ([6]; p.o.) was 2205 mL/min/kg, the “PK Vdpo” value ([6]; p.o.) was 349.6 L/kg and the “PK t1/2po” value ([6]; p.o.) was 1.83 h.
In the case of `C[C@H](NC(=O)Nc1ccc(S(=O)(=O)Cc2ccc3c(c2)CNCC3)cc1)c1cccc(Cl)c1Cl`, the EC50 ([1]; read-out: EC50 (Activity), inverse agonist potency, tested form: HCl) is reported as 18.4 nM, the “EC50/EMax: EC50 (Activity)” value ([2]; tested form: HCl) is reported as greater than 30000 nM and the IC50 ([3]; read-out: IC50 (Activity), ghrelin antagonist potency, tested form: HCl) is reported as 4.1 nM.
`CC(NC(=O)Nc1ccc(S(=O)(=O)CC2=CC3CCC(C2)N3C)cc1)c1cccc(Cl)c1Cl` (centres unmarked) gave an EC50 ([1]; read-out: Activity EC50, ghrelin inverse agonist potency) of 1410 nM and an IC50 ([3]; read-out: Activity IC50, ghrelin antagonist potency) of 7470 nM.
Work on `CC(NC(=O)Nc1ccc(S(=O)(=O)Cc2ccc(CN(C)C)cc2)cc1)c1ccccc1` (centres unmarked) yielded an EC50 ([1]; read-out: Activity EC50 (ghrelin inverse agonist potency), HEK293/GRLN) of 282 nM, an EC50 ([2]; read-out: Activity EC50/EMax: EC50 (ghrelin agonist potency), HEK293/GHSR1a) greater than 30000 nM and an IC50 ([3]; read-out: Activity IC50 (ghrelin antagonist potency), HEK293/GHSR1a, ghrelin 10 nM) of 298 nM.

Like-named read-outs stand apart in the source and are kept apart here. The structures given here were assigned with low confidence; some may be wrong.
